Test results reported in publication PMC7819943, “Rice protein-binding microarrays: a tool to detect cis-acting elements near promoter regions in rice”.
This is one part of the list.

Protein sequences, listed by entry. Tags and fused reporters are not part of them.
UniProt Q0JBA9, entry or part of it: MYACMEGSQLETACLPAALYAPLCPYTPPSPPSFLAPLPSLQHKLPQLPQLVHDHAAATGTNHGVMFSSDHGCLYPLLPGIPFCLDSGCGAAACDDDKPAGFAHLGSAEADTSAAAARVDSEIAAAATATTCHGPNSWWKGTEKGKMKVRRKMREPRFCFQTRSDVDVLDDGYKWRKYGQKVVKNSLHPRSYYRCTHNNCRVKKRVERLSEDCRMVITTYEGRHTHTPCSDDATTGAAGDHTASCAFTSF

The sequences below were run against OsWRKY34 (Oryza sativa, UniProt Q0JBA9 1-250) (assay: protein-binding microarray (RPBM); PBS, 2% BSA, 51.3 ng/ul salmon testes DNA, 50 uM zinc acetate, 200 nM TF, 25 C, 1 h; high values mean tight binding). Settings: protein: recombinant; tags: N-terminal polyhistidine and DsRed monomer fusion (pET32a); label: CyDye5-dUTP incorporated in the synthesized complementary strand; 3' TTTTT single-stranded linker to array surface; dsDNA, one strand shown.
How it was run: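 Ni–NTA purification followed expression in E. coli BL21-CodonPlus of transcription factors fused N-terminally to a polyhistidine tag and DsRed. At 200 nM in PBS with 2% BSA, salmon testes DNA and 50 µM zinc acetate, the protein was incubated for 1 h at 25 °C with a custom Agilent array that had been primer-extended with Cy5-dUTP and blocked with 2% BSA. After washing, the array was read on an Axon 4000B scanner. The binding signal is per-feature fluorescence intensity in arbitrary units.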

| Sequence | binding signal |
| --- | --- |
| ATTGATCTATCGTTTTTATCGTTTATTTGCCGATTGTTTCCGGAGTCACCTAGTGCAG | 13000 fluorescence intensity (a.u.) |
| TACCCTGTTTCATTTTGGGTTTAGGATCTATTGAACAGTTCGGAGTCACCTAGTGCAG | 8060 fluorescence intensity (a.u.) |
| GCATCGCAATGCCTTCTTCACGTGCCTATTCTTGTTTCTTCGGAGTCACCTAGTGCAG | 8330 fluorescence intensity (a.u.) |
| TCTCACGTACGCCTCCACTCGTTTCCTTCTCCCTTCGCTTCGGAGTCACCTAGTGCAG | 8160 fluorescence intensity (a.u.) |
| CATTTCCGCGAGCTCTCTCTTCGGATATTTTCGCTCCCACCGGAGTCACCTAGTGCAG | 8340 fluorescence intensity (a.u.) |
| GGACCGTTCACTAACCCCGTAACCGTGTCGCGCGCGCAACCGGAGTCACCTAGTGCAG | 9590 fluorescence intensity (a.u.) |
| GTGGTGGTGAGGGCGCAGTTGCGGGTGACGTCGTCGAAGACGGAGTCACCTAGTGCAG | 8080 fluorescence intensity (a.u.) |
| ATGCTGACCTTTTGTTTTGCTTCACTACACTCGCAACAAACGGAGTCACCTAGTGCAG | 8650 fluorescence intensity (a.u.) |
| CACCACACACCACGCCACTCGCCTCGCCTCGCACAGTCGCCGGAGTCACCTAGTGCAG | 9430 fluorescence intensity (a.u.) |
| TAGTTTTTTTAGTGCCTGAACATCCTATATAATATCCGATCGGAGTCACCTAGTGCAG | 8070 fluorescence intensity (a.u.) |
| TTTTACATGTTTTTTAGATTTTTTTTATTTTTCGTCTTTTCGGAGTCACCTAGTGCAG | 11200 fluorescence intensity (a.u.) |
| GCCAACCATTCCAACCATGTCAGCCACCCAATAAATATTTCGGAGTCACCTAGTGCAG | 8920 fluorescence intensity (a.u.) |
| ATCATTTTCTACTAGTTGCGTTTGACCGAGGGACTAAGAGCGGAGTCACCTAGTGCAG | 9590 fluorescence intensity (a.u.) |
| GTATCTGTATCTACGTATTTAAGTCTGTCTTTACATACCTCGGAGTCACCTAGTGCAG | 9830 fluorescence intensity (a.u.) |
| GCTGACGGCTCACGTCTTCTTTTTCTTTTTTCGAACGACTCGGAGTCACCTAGTGCAG | 8820 fluorescence intensity (a.u.) |
| GTAGCTGTCCCCATCTCTACAATATCCAGCACCCAGCAAACGGAGTCACCTAGTGCAG | 8080 fluorescence intensity (a.u.) |
| CGCCCGTCGTTTGCCTATCTACTACCCGTGGTAGCCTCCACGGAGTCACCTAGTGCAG | 8260 fluorescence intensity (a.u.) |
| CTTTGGACCACCCAACACACTTATTCATCTACATCCAACACGGAGTCACCTAGTGCAG | 9210 fluorescence intensity (a.u.) |
| ATGGACATTTAACCTCTCGTGTGCCCTCACTAACCACGCGCGGAGTCACCTAGTGCAG | 8430 fluorescence intensity (a.u.) |
| CTATTACTTACCATTTCTGGCCCTATTGTCCCATATTTCCCGGAGTCACCTAGTGCAG | 14800 fluorescence intensity (a.u.) |
| CTTCCCCATCCAATTTTTTAGTCTTATTGCCGTTGTTTCGCGGAGTCACCTAGTGCAG | 9260 fluorescence intensity (a.u.) |

| Sequence | binding signal |
| --- | --- |
| GCAGGGACAAGTTCTTTTGTTTATTAATTTAAATATGTTACGGAGTCACCTAGTGCAG | 9250 fluorescence intensity (a.u.) |
| CGGTCGCTGAATTTTTCCTTCCCGGTTTCCATTGACCTTGCGGAGTCACCTAGTGCAG | 9490 fluorescence intensity (a.u.) |
| GATTCTTGGGTTTTTCCCTTTCCGCAGCTTTCCGCGCACGCGGAGTCACCTAGTGCAG | 9650 fluorescence intensity (a.u.) |
| CACGCCGACGACCCGCGCACACGCCGGCTTCTTCGTCCTCCGGAGTCACCTAGTGCAG | 9140 fluorescence intensity (a.u.) |
| CCTGTGACCCCTTCTCTCATTTCTCTCCCACGCAAGTTCTCGGAGTCACCTAGTGCAG | 8660 fluorescence intensity (a.u.) |
| CCTCTGCTTTCCTCTCACCCCACCGCGCCACCGGCGAGCGCGGAGTCACCTAGTGCAG | 8400 fluorescence intensity (a.u.) |
| TCCAATTGAGGTTGCTGGCACCAATCCTGTTTGCCTATTCCGGAGTCACCTAGTGCAG | 10400 fluorescence intensity (a.u.) |
| CGCACTCCTCTCCCGCGCTCATCCGTTCGTCTGTCGTCTGCGGAGTCACCTAGTGCAG | 10600 fluorescence intensity (a.u.) |
| GCTTCACTTCCAAAATGTTCATGCACTTTCCCACCGCATGCGGAGTCACCTAGTGCAG | 9340 fluorescence intensity (a.u.) |
| CTTCTTTACACAGTTCGTTCACTTCAAAGCATTTGCACATCGGAGTCACCTAGTGCAG | 9560 fluorescence intensity (a.u.) |
| TACCCACACACACACAAGAACACGCGCCACATTTGTCATTCGGAGTCACCTAGTGCAG | 10900 fluorescence intensity (a.u.) |
| ATATATACCAATGATTGTGTCGACATTATATTGCACACTACGGAGTCACCTAGTGCAG | 8290 fluorescence intensity (a.u.) |
| AAACCTACTCTATTCATCATGCGCTAATGGCCTAATTCGTCGGAGTCACCTAGTGCAG | 10700 fluorescence intensity (a.u.) |
| CTCCGCCCTCCGCCGCCTCCGTTGCCAACCGCCACCGTCCCGGAGTCACCTAGTGCAG | 8510 fluorescence intensity (a.u.) |
| GTGGGAATGCAGTTTTGCTATCAATTGTTTGTCTTTTTACCGGAGTCACCTAGTGCAG | 8340 fluorescence intensity (a.u.) |
| CTGCTGCGCCTGTCTCATGTTTATGCTCCTTACTAAAACGCGGAGTCACCTAGTGCAG | 8400 fluorescence intensity (a.u.) |
| GATCCTGCATCCAACACGGCATCATAATCATCAGTCATTCCGGAGTCACCTAGTGCAG | 8880 fluorescence intensity (a.u.) |
| CTTTATGTACTACTTTTGTCATATACATTGCTGTTGTCCTCGGAGTCACCTAGTGCAG | 11500 fluorescence intensity (a.u.) |
| CCATTCCATTCAACCACATCTGTTTCTTTAATTGCTGCGTCGGAGTCACCTAGTGCAG | 9660 fluorescence intensity (a.u.) |
| ACTAAATTTATTTTTGCAGGTTCATATGGGGAAGTATATCCGGAGTCACCTAGTGCAG | 8770 fluorescence intensity (a.u.) |
| AAATCCCTCTTGCCTCGTCTCCACTGCTAGAGTATATGGACGGAGTCACCTAGTGCAG | 8070 fluorescence intensity (a.u.) |

Look-ups from the list:
binding signal with GCTTCACTTCCAAAATGTTCATGCACTTTCCCACCGCATGCGGAGTCACCTAGTGCAG reads 9340 fluorescence intensity (a.u.)
binding signal with GTGGGAATGCAGTTTTGCTATCAATTGTTTGTCTTTTTACCGGAGTCACCTAGTGCAG reads 8340 fluorescence intensity (a.u.)
binding signal with TACCCACACACACACAAGAACACGCGCCACATTTGTCATTCGGAGTCACCTAGTGCAG reads 10900 fluorescence intensity (a.u.)
